Results reported in patent US20200199647A1, “ASSAY FOR SCREENING MODULATORS OF HOLOPHOSPHATASE ACTIVITY” (UNITED KINGDOM RESEARCH AND INNOVATION, priority 2017, published 2020).

Tested on: P-eIF2α and PP1c
Assay: Visualisation of protein precipitates
Set-up: species or system human
[1] = 2 mM compound added to 1 μM P-eIF2α or PP1c

Q: How did the precipitation of proteins [1] turn out when `N=C(N)N/N=C/c1c(Cl)cccc1Cl` [Guanabenz] was run?
A: Its precipitation of proteins is “unlike Guanabenz, Sephin1 and Raphin1”.

Q: `NC(N)=N/N=C/c1cccc(Cl)c1Cl` [Raphin1] was tested. Which precipitation of proteins [1] did it give?
A: Its precipitation of proteins is “unlike Guanabenz, Sephin1 and Raphin1”.

Q: Which precipitation of proteins (Salubrinal 30 μM up to 2 mM added to 1 μM P-eIF2α or PP1c) does the source give for `O=C(/C=C/c1ccccc1)NC(NC(=S)Nc1cccc2cccnc12)C(Cl)(Cl)Cl` (stereo not drawn) [Salubrinal] here?
A: The precipitation of proteins was “induced the precipitation of proteins”.
